Experimental data taken from PubChem BioAssay AID234 (DTP/NCI, 2004).
The list shows only some results of the screen, not a fair sample: it covers a few groups of compounds. Other doses and runs of a compound may be missing. T/C is the treated group as % of the vehicle group. Schedule codes are those of the source, read here as Q, the interval in days (D) or hours (H), X, the number of doses. Some entries were tested several times; the values are given in rising order. Some entries show no survivor count and are marked so; the dose need not have been tolerated. Counts like (3×) say how often a value occurs here. Some T/C values carry the count of animals alive at the toxicity check; where neither a count nor a note follows, no animal had died by that day. Some doses have a count of surviving animals in place of a T/C: the source files T/C as zero there, which appears to mark a toxic dose or a test without result, not a measured value. Counts of survivors are from the toxicity check, whose day is not always given; animals may have died later.

Tested on: C3AKF1 mice, hamster liver cystadenocarcinoma s.c., tumor weight T/C
Assay: NCI In Vivo Anticancer Drug Screen. Data for tumor model Cystadenocarcinoma, Liver (No. 1) (Hamster) (subcutaneous) in C3AKF1 (CHKRF1) mice
Details: T/C endpoint: mean tumor weight, schedule: Q01DX010 (ip), higher T/C = larger tumour
Protocol: The antitumor activity of compounds was measured in mice bearing transplantable tumors. Survival or tumor size were measured and the results are expressed as the measurement made in the treated group (T) divided by the measurement made in the vehicle treated control group (C). The tumor model used in this assay is Cystadenocarcinoma, Liver (No. 1) (Hamster) (subcutaneous) in C3AKF1 (CHKRF1) mice

Q: How did the T/C (dose: 1.25 mg/kg/injection, vehicle: carboxymethylcellulose (CMC), evaluated on day 15) turn out when `BrCc1cccc(CBr)c1` was run?
A: 101 % of control

Q: And the T/C (dose: 2.5 mg/kg/injection, vehicle: carboxymethylcellulose (CMC), evaluated on day 15)?
A: 115 % of control

Q: What about the T/C (dose: 5.0 mg/kg/injection, vehicle: carboxymethylcellulose (CMC), evaluated on day 15) of the same compound?
A: 117 % of control

Q: What about the survivor count (dose: 10.0 mg/kg/injection, vehicle: carboxymethylcellulose (CMC)) of the same compound?
A: 0 of 6

Q: `O[C@H](CNCCBr)[C@@H](O)CNCCBr` was tested. Which T/C (dose: 0.2 mg/kg/injection, vehicle: saline, evaluated on day 15) did it give?
A: 107 % of control

Q: And the T/C (dose: 0.5 mg/kg/injection, vehicle: saline, evaluated on day 15)?
A: 74 % of control [5 of 6 alive]

Q: And the T/C (dose: 1.0 mg/kg/injection, vehicle: saline, evaluated on day 15)?
A: 54 and 73 % of control

Q: And the T/C (dose: 2.0 mg/kg/injection, vehicle: saline, evaluated on day 15)?
A: 65 [5 of 6 alive] and 88 % of control [6 of 7 alive]

Q: What about the T/C (dose: 4.0 mg/kg/injection, vehicle: saline, evaluated on day 15) of the same compound?
A: 62 % of control [6 of 7 alive]

Q: What about the survivor count (dose: 8.0 mg/kg/injection, vehicle: saline) of the same compound?
A: 0 of 7

Q: With `N/C(=N\[N+](=O)[O-])N(CCO[N+](=O)[O-])N=O` as the compound, how does the T/C (dose: 3.75 mg/kg/injection, vehicle: carboxymethylcellulose (CMC), evaluation day not shown) read?
A: 75 % of control [survivor count not shown]

Q: What about the T/C (dose: 7.5 mg/kg/injection, vehicle: carboxymethylcellulose (CMC), evaluation day not shown) of the same compound?
A: 65 % of control [survivor count not shown]

Q: What about the T/C (dose: 15.0 mg/kg/injection, vehicle: carboxymethylcellulose (CMC), evaluation day not shown) of the same compound?
A: 79 % of control [survivor count not shown] (2×)

Q: What about the T/C (dose: 30.0 mg/kg/injection, vehicle: carboxymethylcellulose (CMC), evaluation day not shown) of the same compound?
A: 89 [survivor count not shown] and 124 % of control [survivor count not shown]

Q: And the T/C (dose: 60.0 mg/kg/injection, vehicle: carboxymethylcellulose (CMC), evaluation day not shown)?
A: 84 % of control [survivor count not shown]

Q: Which results are given for `CCOC(=O)COc1ccc(N(CCCl)CCCl)cc1`?
A: T/C (dose: 2.0 mg/kg/injection, vehicle: carboxymethylcellulose (CMC), evaluated on day 15): 150 % of control; T/C (dose: 4.0 mg/kg/injection, vehicle: carboxymethylcellulose (CMC), evaluated on day 15): 84 % of control; T/C (dose: 8.0 mg/kg/injection, vehicle: carboxymethylcellulose (CMC), evaluated on day 15): 74 % of control; T/C (dose: 16.0 mg/kg/injection, vehicle: carboxymethylcellulose (CMC), evaluated on day 15): 31 % of control [4 of 6 alive]
